We go through one molecule from article PMC11982220.

By UniProt entry, the sequences of proteins in these tests, tags left out.
UniProt Q9Z2X8: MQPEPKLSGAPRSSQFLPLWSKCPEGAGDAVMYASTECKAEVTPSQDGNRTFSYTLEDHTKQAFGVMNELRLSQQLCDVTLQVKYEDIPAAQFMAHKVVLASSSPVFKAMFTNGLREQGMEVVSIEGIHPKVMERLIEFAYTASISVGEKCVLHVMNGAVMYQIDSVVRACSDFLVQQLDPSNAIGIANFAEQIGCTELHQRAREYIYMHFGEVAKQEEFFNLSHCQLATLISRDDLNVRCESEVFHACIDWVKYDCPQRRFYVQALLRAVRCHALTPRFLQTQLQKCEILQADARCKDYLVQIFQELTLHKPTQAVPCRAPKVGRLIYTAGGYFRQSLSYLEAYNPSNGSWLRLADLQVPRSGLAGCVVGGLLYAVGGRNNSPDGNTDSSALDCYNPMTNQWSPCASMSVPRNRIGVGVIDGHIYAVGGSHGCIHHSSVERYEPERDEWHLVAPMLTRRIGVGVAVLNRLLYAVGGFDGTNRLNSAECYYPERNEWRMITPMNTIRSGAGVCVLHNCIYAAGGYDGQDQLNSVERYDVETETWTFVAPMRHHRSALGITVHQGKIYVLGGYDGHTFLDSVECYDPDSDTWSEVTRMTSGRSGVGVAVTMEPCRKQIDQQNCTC

For test [1], the target named is Kelch-like ECH-related protein 1 (Keap1) (mouse (endogenous in primary mouse hepatocytes)) (UniProt Q9Z2X8). Put plainly: co-IP; primary mouse hepatocytes treated with FFA and/or Elane, or hepatocytes from Elane+/+ and Elane-/- mice after modelling; NP-40 lysis buffer with protease inhibitors; Keap1 or P62 antibody or control IgG overnight at 4 °C, protein A/G beads 3 h at 4 °C; Western blotting. (In general: Immunoblotting shows a protein as a band on a membrane.)

Test [2] concerns the target P62 (mouse (endogenous in primary mouse hepatocytes)) (UniProt Q64337). The test is described as above.

These are yes or no findings as the source states them, for the method shown. In cells and extracts the contact can be indirect. Some binding calls cover weakened binding; strength is not graded here.

B1: Active neutrophil elastase (Elane) (enzyme, UniProt Q3UP87 27-265)
chain: SEIVGGRPARPHAWPFMASLQRRGGHFCGATLIARNFVMSAAHCVNGLNFRSVQVVLGAHDLRRQERTRQTFSVQRIFENGFDPSQLLNDIVIIQLNGSATINANVQVAQLPAQGQGVGDRTPCLAMGWGRLGTNRPSPSVLQELNVTVVTNMCRRRVNVCTLVPRRQAGICFGDSGGPLVCNNLVQGIDSFIRGGCGSGLYPDAFAPVAEFADWINSIIRSHNDHLLTHPKDREGRTN
Turning to B1, the binding result in test [1] and in test [2] was “binds” in each case.
